Our source for the binding values is patent KR20230108156A.

Sequences of proteins named here, by UniProt entry; tags and fusion partners are left off.
UniProt P29965: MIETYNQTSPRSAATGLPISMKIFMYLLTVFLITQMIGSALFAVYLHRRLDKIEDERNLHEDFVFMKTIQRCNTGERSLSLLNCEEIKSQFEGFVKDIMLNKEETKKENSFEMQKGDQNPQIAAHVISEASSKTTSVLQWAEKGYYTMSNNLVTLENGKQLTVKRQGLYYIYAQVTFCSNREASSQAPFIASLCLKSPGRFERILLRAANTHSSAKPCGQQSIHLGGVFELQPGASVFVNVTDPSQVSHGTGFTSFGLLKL

This assay addresses CD40L on CD40L 표면발현 CHO 세포 (CHO cells expressing CD40L on the surface, ATCC) (UniProt P29965). The assay is described as follows: flow cytometry on CD40L CHO cells, 100 μl culture supernatant, anti-human Ig-FITC.

Results are given in words; binding and its absence hold for the method and conditions named. Some binding calls cover weakened binding; strength is not graded here.

B1: 14D6 키메릭 항체 (chimeric 14D6) (antibody, V domains shown)
VH: QVQLQQSGAELVKPGASVKLSCKASGYTFTRYYMFWVKQRPGQGLEWIGEINPTNGDTNFNEEFKSKATLTVDKSSSTAYMQLSSLTSEDSAVYYCTRPLGSRDAMDYWGPGTSVTVSS
VL: DIVLTQSPASLAVSLGQRATISCRASQSVSSSRYSYMHWYQQKPGQPPKLLIKYASSLESGVPARFSGSGSGTDFTLNIHPVEGEDTATYYCQHSWELPWTFGGGTKLEIK
For the molecule B1, the binding result is recorded as “binds”.
